Test results from article PMC7968368.
These are yes or no findings as the source states them, for the method shown. Binding seen in cells or lysates may run through a third protein. Some entries that bind do so weakly or less than the wild type. For some of these results: Sequences can lack the tags named with a protein.

The chains behind the UniProt entries cited, without tags or fusion partners.
UniProt Q6PDQ2: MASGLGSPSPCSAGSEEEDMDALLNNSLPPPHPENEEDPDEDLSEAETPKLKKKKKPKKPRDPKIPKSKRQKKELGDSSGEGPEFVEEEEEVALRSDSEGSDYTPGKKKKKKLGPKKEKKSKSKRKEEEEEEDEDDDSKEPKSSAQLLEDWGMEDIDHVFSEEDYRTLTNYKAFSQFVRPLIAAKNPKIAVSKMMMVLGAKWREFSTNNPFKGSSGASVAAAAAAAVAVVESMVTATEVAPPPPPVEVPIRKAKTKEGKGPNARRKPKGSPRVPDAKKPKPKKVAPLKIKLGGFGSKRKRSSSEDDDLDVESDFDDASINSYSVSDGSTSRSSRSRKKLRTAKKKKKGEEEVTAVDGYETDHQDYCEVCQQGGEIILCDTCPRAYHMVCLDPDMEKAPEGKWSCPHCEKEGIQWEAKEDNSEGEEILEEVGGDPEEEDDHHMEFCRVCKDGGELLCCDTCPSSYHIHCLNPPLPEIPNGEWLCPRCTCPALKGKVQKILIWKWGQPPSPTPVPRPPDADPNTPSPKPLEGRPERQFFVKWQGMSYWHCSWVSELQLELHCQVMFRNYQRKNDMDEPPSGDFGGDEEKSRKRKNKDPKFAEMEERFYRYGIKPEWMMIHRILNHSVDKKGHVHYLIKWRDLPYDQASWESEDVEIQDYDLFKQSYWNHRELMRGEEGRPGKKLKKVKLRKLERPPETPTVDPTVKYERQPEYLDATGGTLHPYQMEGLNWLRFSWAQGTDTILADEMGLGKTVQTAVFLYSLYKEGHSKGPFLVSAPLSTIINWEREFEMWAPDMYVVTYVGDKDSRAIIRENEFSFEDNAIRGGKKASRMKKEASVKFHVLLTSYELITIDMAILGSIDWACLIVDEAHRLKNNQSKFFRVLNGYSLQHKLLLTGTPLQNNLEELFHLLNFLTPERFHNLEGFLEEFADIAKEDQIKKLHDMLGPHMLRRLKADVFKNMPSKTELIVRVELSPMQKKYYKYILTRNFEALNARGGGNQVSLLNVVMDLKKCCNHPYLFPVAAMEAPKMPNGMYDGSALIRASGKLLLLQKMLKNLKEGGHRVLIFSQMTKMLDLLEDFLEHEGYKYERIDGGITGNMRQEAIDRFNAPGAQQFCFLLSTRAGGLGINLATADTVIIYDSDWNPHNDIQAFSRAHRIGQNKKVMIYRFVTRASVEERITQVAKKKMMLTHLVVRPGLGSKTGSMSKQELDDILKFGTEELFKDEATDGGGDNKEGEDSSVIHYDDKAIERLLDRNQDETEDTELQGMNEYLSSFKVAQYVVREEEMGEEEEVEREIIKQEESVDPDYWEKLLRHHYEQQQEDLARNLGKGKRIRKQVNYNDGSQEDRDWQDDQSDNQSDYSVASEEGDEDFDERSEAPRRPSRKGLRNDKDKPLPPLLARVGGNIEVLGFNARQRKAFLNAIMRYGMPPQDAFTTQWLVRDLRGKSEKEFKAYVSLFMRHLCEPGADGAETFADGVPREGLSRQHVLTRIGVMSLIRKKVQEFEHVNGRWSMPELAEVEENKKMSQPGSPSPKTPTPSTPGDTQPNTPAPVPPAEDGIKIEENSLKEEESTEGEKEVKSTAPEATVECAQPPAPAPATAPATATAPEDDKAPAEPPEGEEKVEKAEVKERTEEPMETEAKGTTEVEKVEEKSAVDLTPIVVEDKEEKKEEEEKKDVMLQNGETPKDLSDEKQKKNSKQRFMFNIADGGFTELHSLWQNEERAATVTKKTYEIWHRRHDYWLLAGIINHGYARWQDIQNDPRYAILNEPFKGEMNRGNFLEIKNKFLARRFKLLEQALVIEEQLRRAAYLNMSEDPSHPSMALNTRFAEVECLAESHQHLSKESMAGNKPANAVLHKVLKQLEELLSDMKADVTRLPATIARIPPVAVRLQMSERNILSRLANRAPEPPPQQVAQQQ
UniProt O09106: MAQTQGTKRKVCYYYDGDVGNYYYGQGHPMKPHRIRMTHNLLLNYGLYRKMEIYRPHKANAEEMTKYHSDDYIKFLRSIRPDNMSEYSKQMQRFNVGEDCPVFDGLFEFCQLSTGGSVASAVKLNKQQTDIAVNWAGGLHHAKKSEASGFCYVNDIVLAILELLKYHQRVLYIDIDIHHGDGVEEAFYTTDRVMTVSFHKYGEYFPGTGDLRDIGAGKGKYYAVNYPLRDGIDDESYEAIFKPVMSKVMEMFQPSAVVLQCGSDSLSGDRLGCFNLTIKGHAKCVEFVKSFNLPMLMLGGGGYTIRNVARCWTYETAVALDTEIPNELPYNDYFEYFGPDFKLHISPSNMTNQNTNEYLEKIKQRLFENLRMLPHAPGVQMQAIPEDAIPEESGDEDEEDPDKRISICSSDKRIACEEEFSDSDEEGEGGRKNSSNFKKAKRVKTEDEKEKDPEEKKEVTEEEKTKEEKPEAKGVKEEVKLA
UniProt P70288: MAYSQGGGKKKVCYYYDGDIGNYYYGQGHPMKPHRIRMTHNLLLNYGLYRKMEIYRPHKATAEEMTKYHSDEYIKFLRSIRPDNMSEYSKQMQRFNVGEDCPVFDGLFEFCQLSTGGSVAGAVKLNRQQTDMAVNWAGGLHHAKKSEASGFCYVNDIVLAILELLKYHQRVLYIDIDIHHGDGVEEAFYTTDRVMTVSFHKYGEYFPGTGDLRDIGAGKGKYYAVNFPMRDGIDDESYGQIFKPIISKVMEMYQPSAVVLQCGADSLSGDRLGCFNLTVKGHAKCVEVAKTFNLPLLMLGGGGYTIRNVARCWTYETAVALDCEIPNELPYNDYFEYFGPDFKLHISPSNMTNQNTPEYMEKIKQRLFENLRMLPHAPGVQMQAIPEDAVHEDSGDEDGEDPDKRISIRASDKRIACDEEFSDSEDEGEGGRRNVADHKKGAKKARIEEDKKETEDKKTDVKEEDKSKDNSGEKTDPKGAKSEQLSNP
UniProt P23198: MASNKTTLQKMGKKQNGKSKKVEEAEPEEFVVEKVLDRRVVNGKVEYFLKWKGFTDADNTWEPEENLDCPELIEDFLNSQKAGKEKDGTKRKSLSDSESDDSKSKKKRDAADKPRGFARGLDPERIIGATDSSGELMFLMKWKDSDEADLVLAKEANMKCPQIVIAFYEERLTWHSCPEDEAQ

T1: TBX2 (T-box 2) (mouse (endogenous in E14.5 lung)) (UniProt Q60707)
T1 sequence: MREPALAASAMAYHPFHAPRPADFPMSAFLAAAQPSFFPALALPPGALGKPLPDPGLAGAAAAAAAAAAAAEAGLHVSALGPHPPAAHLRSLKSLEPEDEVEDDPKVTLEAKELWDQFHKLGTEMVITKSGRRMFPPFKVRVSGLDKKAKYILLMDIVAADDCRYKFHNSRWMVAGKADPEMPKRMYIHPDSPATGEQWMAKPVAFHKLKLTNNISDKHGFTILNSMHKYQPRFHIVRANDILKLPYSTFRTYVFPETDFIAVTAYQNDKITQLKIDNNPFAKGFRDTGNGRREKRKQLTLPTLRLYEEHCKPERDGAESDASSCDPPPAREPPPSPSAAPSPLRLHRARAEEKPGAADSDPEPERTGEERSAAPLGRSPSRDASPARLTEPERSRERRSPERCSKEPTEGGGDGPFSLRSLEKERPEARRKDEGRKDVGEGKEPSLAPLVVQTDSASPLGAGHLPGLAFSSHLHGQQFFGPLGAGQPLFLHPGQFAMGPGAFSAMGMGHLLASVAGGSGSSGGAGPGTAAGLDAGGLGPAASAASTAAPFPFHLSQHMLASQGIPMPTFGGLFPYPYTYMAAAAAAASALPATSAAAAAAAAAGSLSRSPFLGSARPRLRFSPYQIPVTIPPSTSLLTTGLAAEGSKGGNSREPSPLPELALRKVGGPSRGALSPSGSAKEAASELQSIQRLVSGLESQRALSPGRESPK

T2: full-length mouse HMGB2 (Hmgb2-GFP) (mouse) (UniProt P30681)
T2 sequence: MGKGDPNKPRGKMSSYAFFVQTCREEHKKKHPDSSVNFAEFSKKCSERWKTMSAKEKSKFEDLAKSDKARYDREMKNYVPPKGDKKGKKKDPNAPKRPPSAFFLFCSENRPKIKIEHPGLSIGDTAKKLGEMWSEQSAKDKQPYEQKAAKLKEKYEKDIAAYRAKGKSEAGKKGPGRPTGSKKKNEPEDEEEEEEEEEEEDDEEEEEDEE

B1: HMGB2 (high mobility group box 2) (protein, UniProt P30681 1-210)
chain: T2 sequence
B2: N-terminally HA-tagged full-length human TBX2 (protein, UniProt Q13207 1-712)
chain: MREPALAASAMAYHPFHAPRPADFPMSAFLAAAQPSFFPALALPPGALAKPLPDPGLAGAAAAAAAAAAAAEAGLHVSALGPHPPAAHLRSLKSLEPEDEVEDDPKVTLEAKELWDQFHKLGTEMVITKSGRRMFPPFKVRVSGLDKKAKYILLMDIVAADDCRYKFHNSRWMVAGKADPEMPKRMYIHPDSPATGEQWMAKPVAFHKLKLTNNISDKHGFTILNSMHKYQPRFHIVRANDILKLPYSTFRTYVFPETDFIAVTAYQNDKITQLKIDNNPFAKGFRDTGNGRREKRKQLTLPSLRLYEEHCKPERDGAESDASSCDPPPAREPPTSPGAAPSPLRLHRARAEEKSCAADSDPEPERLSEERAGAPLGRSPAPDSASPTRLTEPERARERRSPERGKEPAESGGDGPFGLRSLEKERAEARRKDEGRKEAAEGKEQGLAPLVVQTDSASPLGAGHLPGLAFSSHLHGQQFFGPLGAGQPLFLHPGQFTMGPGAFSAMGMGHLLASVAGGGNGGGGGPGTAAGLDAGGLGPAASAASTAAPFPFHLSQHMLASQGIPMPTFGGLFPYPYTYMAAAAAAASALPATSAAAAAAAAAGSLSRSPFLGSARPRLRFSPYQIPVTIPPSTSLLTTGLASEGSKAAGGNSREPSPLPELALRKVGAPSRGALSPSGSAKEAANELQSIQRLVSGLESQRALSPGRESPK

Experiments:
[1] = target: T1, TBX2 (T-box 2) (mouse (endogenous in E14.5 lung)); assay: proximity ligation; Duolink in situ PLA on 10 µm frontal lung sections of E14.5 wildtype and Tbx2-mutant embryos; primary antibodies against TBX2 and the candidate, 1:100, overnight at 4 °C
[2] = target: full-length mouse CHD4 (mouse) (UniProt Q6PDQ2); assay: co-IP; HEK293 co-transfected with HA-TBX2 and the candidate; lysates by the RIME protocol; IP with anti-MYC or an antibody against the candidate, Protein G magnetic beads overnight at 4 °C; blot for HA-tagged TBX2
[3] = target: full-length mouse HDAC1 (mouse) (UniProt O09106); assay: as above
[4] = target: T2, full-length mouse HMGB2 (Hmgb2-GFP) (mouse); assay: as above
[5] = target: full-length mouse HDAC2 (Hdac2-Myc-DDK) (mouse) (UniProt P70288); assay: as above
[6] = target: full-length mouse CBX3 (Cbx3-Myc-DDK) (mouse) (UniProt P23198); assay: as above

binding [1] | also measured | Molecule
binds |  | CBX3 (chromobox 3) (from UniProt P23198 1-183)
binds |  | CHD4 (chromodomain helicase DNA binding protein 4) (from UniProt Q6PDQ2 1-1915) (enzyme)
binds |  | HDAC1 (histone deacetylase 1) (from UniProt O09106 1-482) (enzyme)
binds |  | HDAC2 (histone deacetylase 2) (from UniProt P70288 1-488) (enzyme)
binds |  | B1
 | binding [2]: binds; binding [3]: binds; binding [4]: binds; binding [5]: binds; binding [6]: binds | B2
